# Measurements reported in article PMC7819943, “Rice protein-binding microarrays: a tool to detect cis-acting elements near promoter regions in rice”.
# Amino acid sequences for entries named in this document (tags omitted).
# UniProt Q0JBA9, entry or part of it: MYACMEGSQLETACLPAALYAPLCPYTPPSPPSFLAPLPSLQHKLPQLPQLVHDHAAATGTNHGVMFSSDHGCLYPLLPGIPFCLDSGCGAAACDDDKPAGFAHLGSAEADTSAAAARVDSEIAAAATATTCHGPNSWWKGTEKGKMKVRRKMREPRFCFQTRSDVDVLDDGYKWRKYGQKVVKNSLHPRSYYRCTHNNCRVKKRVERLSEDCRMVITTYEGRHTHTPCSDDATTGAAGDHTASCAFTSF
# The list shows a part of the results.
# Biological target: OsWRKY34 (Oryza sativa, UniProt Q0JBA9 1-250)
# Assay: protein-binding microarray (RPBM); PBS, 2% BSA, 51.3 ng/ul salmon testes DNA, 50 uM zinc acetate, 200 nM TF, 25 C, 1 h; high values mean tight binding
# Conditions: protein: recombinant; tags: N-terminal polyhistidine and DsRed monomer fusion (pET32a); label: CyDye5-dUTP incorporated in the synthesized complementary strand; 3' TTTTT single-stranded linker to array surface; dsDNA, one strand shown
# Procedure, shortened: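 For the binding signal, per-feature fluorescence intensity was read in arbitrary units on an Axon 4000B scanner. Before scanning, a 2% BSA-blocked custom Agilent array made double-stranded with Cy5-dUTP was washed after 1 h at 25 °C with 200 nM protein and 50 µM zinc acetate. The proteins were Ni–NTA-purified transcription factors with N-terminal polyhistidine and DsRed fusions, expressed in E. coli BL21-CodonPlus.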
row,Sequence,binding signal
1,CAAGTTTGTGTACTGCAGTTTGTGCTTTGCAAGTTCTTGTCGGAGTCACCTAGTGCAG,9340 fluorescence intensity (a.u.)
2,GAACATGTGAAGGTTTTCTTTAGTACTAGTATTTTTTTTGCGGAGTCACCTAGTGCAG,8080 fluorescence intensity (a.u.)
3,AGCTAGGAAGGGGAGGGGCAGTGGTGGTGGTAGCTGCATCCGGAGTCACCTAGTGCAG,10900 fluorescence intensity (a.u.)
4,GGTGCACTCCTGATCCTTCTTCTCTCTGTGCCAATTTATACGGAGTCACCTAGTGCAG,8500 fluorescence intensity (a.u.)
5,CGTTTTTACCCTATACTCGCACAGTCCAACCACACCACGCCGGAGTCACCTAGTGCAG,8800 fluorescence intensity (a.u.)
6,CCATACTTTCCGTCCAGATAATTGTCCAGTCCAAAGACACCGGAGTCACCTAGTGCAG,8560 fluorescence intensity (a.u.)
7,ATCACCCCGCCCAACTCCGTTACACAGAGCCGCCGCCGTCCGGAGTCACCTAGTGCAG,10000 fluorescence intensity (a.u.)
8,TTCGTTGACCAAGTTTAATTCAAATTCAATTCAATTTTAACGGAGTCACCTAGTGCAG,9760 fluorescence intensity (a.u.)
9,GGGTACTACTCCCAGCTCGCCTCCATGCCGCTCAAGTCCGCGGAGTCACCTAGTGCAG,8600 fluorescence intensity (a.u.)
10,TATTGGCTATCCGTGCTGGAATCCTGAACCCTTTACCTCTCGGAGTCACCTAGTGCAG,8050 fluorescence intensity (a.u.)
11,GCTGGCCCACTCTACGTAACCTGTTACCTGCAGCCTCCTTCGGAGTCACCTAGTGCAG,9440 fluorescence intensity (a.u.)
12,AACTCACTGGAACAGATCCAATGCCTTCTTACTCCCTTTTCGGAGTCACCTAGTGCAG,8690 fluorescence intensity (a.u.)
13,TTGAGTTGTTGGGCTGGGCAGTTGGGCTTCCTTATTGGGTCGGAGTCACCTAGTGCAG,10100 fluorescence intensity (a.u.)
14,TGTTCTCCTACAGTCTCATCACCGATTGCTACTCCTATTACGGAGTCACCTAGTGCAG,10500 fluorescence intensity (a.u.)
15,GGTATTGGACTATTGGTCCTTTTCCTTCACTTATCCGGTTCGGAGTCACCTAGTGCAG,8390 fluorescence intensity (a.u.)
16,TTTCTCTTCTTTTTTCTTTATTCGCTAATTATTTGCGGGGCGGAGTCACCTAGTGCAG,11900 fluorescence intensity (a.u.)
17,CTTCCGTCTCCATCTCCACCACCACCACCACCACGGCCACCGGAGTCACCTAGTGCAG,9520 fluorescence intensity (a.u.)
18,ACGTACGTTACGTTTCTCCCATCCCACCCCATGTTCTTGCCGGAGTCACCTAGTGCAG,11400 fluorescence intensity (a.u.)
19,ACTCCAGCCGATTCTTACTCTGTTCTCAAATCGATCTCTGCGGAGTCACCTAGTGCAG,8490 fluorescence intensity (a.u.)
20,CCAATTTCTACCTTTTGCATGATGCATCTATCGTGCATGCCGGAGTCACCTAGTGCAG,9320 fluorescence intensity (a.u.)
21,ATAGCTTTCGTGCTAGCTTCATCGATGTTACCCACCAAATCGGAGTCACCTAGTGCAG,9210 fluorescence intensity (a.u.)

# A different layout for part of the listing above.
row	Sequence	binding signal
2	GAACATGTGAAGGTTTTCTTTAGTACTAGTATTTTTTTTGCGGAGTCACCTAGTGCAG	8080 fluorescence intensity (a.u.)
3	AGCTAGGAAGGGGAGGGGCAGTGGTGGTGGTAGCTGCATCCGGAGTCACCTAGTGCAG	10900 fluorescence intensity (a.u.)
4	GGTGCACTCCTGATCCTTCTTCTCTCTGTGCCAATTTATACGGAGTCACCTAGTGCAG	8500 fluorescence intensity (a.u.)
5	CGTTTTTACCCTATACTCGCACAGTCCAACCACACCACGCCGGAGTCACCTAGTGCAG	8800 fluorescence intensity (a.u.)
7	ATCACCCCGCCCAACTCCGTTACACAGAGCCGCCGCCGTCCGGAGTCACCTAGTGCAG	10000 fluorescence intensity (a.u.)
10	TATTGGCTATCCGTGCTGGAATCCTGAACCCTTTACCTCTCGGAGTCACCTAGTGCAG	8050 fluorescence intensity (a.u.)
11	GCTGGCCCACTCTACGTAACCTGTTACCTGCAGCCTCCTTCGGAGTCACCTAGTGCAG	9440 fluorescence intensity (a.u.)
13	TTGAGTTGTTGGGCTGGGCAGTTGGGCTTCCTTATTGGGTCGGAGTCACCTAGTGCAG	10100 fluorescence intensity (a.u.)
14	TGTTCTCCTACAGTCTCATCACCGATTGCTACTCCTATTACGGAGTCACCTAGTGCAG	10500 fluorescence intensity (a.u.)

# (cont.)

row,Sequence,binding signal
1,TCCGTCTCTTTCTTATTAATTAATTTTCTATATCATATTTCGGAGTCACCTAGTGCAG,9530 fluorescence intensity (a.u.)
2,ATCGCTCGCCACGTGTCCACGCTCCACCCCAACCCCTCATCGGAGTCACCTAGTGCAG,8620 fluorescence intensity (a.u.)
3,TCTCTCTCTCTCTTGTCGCGATGGCGGCGGCGGCGATCGCCGGAGTCACCTAGTGCAG,8810 fluorescence intensity (a.u.)
4,GTATATATATGTCGTGGTTTGTTATGTCTGGGGTTGATCACGGAGTCACCTAGTGCAG,10100 fluorescence intensity (a.u.)
5,GTGTGTGTGTGTGGACCAGGCGGCGCCCAATCGGCCATGCCGGAGTCACCTAGTGCAG,8290 fluorescence intensity (a.u.)
6,TGGATGTCGCCGTCGGCGGGGTGGTGGGATTTGGAACTGGCGGAGTCACCTAGTGCAG,12500 fluorescence intensity (a.u.)
7,ACACAGCACATGTCACCGCCTCGTCAGACCGGGCCCACACCGGAGTCACCTAGTGCAG,9950 fluorescence intensity (a.u.)
8,GGTTTGTGAATTTTTTAATATCTCTCTGTGTGTGTTTGTGCGGAGTCACCTAGTGCAG,8480 fluorescence intensity (a.u.)
9,TACCCCTCATGACTTTTTTGTGTCTTCTTCTATTGTTCATCGGAGTCACCTAGTGCAG,8290 fluorescence intensity (a.u.)
10,TTTTTGGTGTGGTGTGGATCTCTCATAGGTAAACTTGTCCCGGAGTCACCTAGTGCAG,8480 fluorescence intensity (a.u.)
11,GGTCCAAGTCAGCCTTCTTGCATTGGTCCAAGTCAGCCTTCGGAGTCACCTAGTGCAG,9120 fluorescence intensity (a.u.)
12,TCCCATGTCTCCGCCGCCGCGTCACCGCCCAGCACGAACCCGGAGTCACCTAGTGCAG,11900 fluorescence intensity (a.u.)
13,GTTTATTTGGGTTCTCTTATGTGTTGGTGTGTCGATGACCCGGAGTCACCTAGTGCAG,8940 fluorescence intensity (a.u.)
14,GTGCACTGGATTTCTAAGTTGAGGGGCGCGTTTTATCCGACGGAGTCACCTAGTGCAG,9050 fluorescence intensity (a.u.)
15,TTCCGCGGTAGGGGAGTGAAAGTTATGTGATTATGTTGTTCGGAGTCACCTAGTGCAG,8960 fluorescence intensity (a.u.)
16,ACCGACGCCTGCCTACCGCGATGCCACCCTTGCCTGCCGCCGGAGTCACCTAGTGCAG,10200 fluorescence intensity (a.u.)
17,ACACTGAGCACCCTCGCAGGATTCCACGGTCAAATCTTGACGGAGTCACCTAGTGCAG,8260 fluorescence intensity (a.u.)
18,TATCTGAGCACTTAGAGGTGTAATATCCGCTTCATGTTTCCGGAGTCACCTAGTGCAG,8980 fluorescence intensity (a.u.)
19,ATTGTTCTCTAGCTAGATTTCCATGCACATTTCGATACATCGGAGTCACCTAGTGCAG,8360 fluorescence intensity (a.u.)
20,ATAGGTGCCGGTTCTATTTTGGTATAGGGGTCGGTTGTTTCGGAGTCACCTAGTGCAG,11700 fluorescence intensity (a.u.)
21,CCTTGCCAGCTAGCTACTTCGTGTTTGGTACTACTGAAAACGGAGTCACCTAGTGCAG,8700 fluorescence intensity (a.u.)
